Two molecules from paper PMC10845154 can be followed below.

For test [1], the target named is T1, ISOFLAVONE SYNTHASE2 (GmIFS2) (soybean (Glycine max)) (UniProt Q9SWR5).
T1 sequence: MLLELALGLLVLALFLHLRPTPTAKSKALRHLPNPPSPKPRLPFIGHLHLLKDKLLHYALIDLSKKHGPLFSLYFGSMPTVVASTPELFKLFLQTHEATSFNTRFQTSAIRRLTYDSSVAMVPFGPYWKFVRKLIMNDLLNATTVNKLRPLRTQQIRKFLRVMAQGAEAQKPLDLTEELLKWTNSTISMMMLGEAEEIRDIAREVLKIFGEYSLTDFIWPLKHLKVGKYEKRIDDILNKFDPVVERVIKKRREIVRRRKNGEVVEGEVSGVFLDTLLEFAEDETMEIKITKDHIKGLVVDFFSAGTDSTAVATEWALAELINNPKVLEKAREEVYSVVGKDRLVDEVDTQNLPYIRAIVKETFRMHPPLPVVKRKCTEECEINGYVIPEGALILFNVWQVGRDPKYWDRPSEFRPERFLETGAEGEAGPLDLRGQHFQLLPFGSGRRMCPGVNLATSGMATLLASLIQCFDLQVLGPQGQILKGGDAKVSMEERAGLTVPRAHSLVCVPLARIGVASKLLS
Nature of the test: split reporter; BiFC: GmADT-YC (or AtADT5, PvMATE8-YC, AtCRA1-YC) co-expressed with GmIFS2-YN in N. benthamiana leaves, 1:1 (v/v) co-infiltration, 35S promoter, confocal microscopy 48 h post-infiltration (Figure 7).

Test [2] concerns the target T1, ISOFLAVONE SYNTHASE2 (GmIFS2) (soybean (Glycine max)). In words: split reporter; BiFC, reciprocal combination: GmADT-YN co-expressed with GmIFS2-YC in N. benthamiana leaves, confocal microscopy 48 h post-infiltration (Supplementary Figure 1).

These are yes or no findings as the source states them, for the method shown. In cells and extracts the contact can be indirect. Some entries that bind do so weakly or less than the wild type.

B1: Arabidopsis seed storage protein CRUCIFERIN1 (AtCRA1) (protein, UniProt P15455 25-472)
chain: QGQQGQQFPNECQLDQLNALEPSHVLKSEAGRIEVWDHHAPQLRCSGVSFARYIIESKGLYLPSFFNTAKLSFVAKGRGLMGKVIPGCAETFQDSSEFQPRFEGQGQSQRFRDMHQKVEHIRSGDTIATTPGVAQWFYNDGQEPLVIVSVFDLASHQNQLDRNPRPFYLAGNNPQGQVWLQGREQQPQKNIFNGFGPEVIAQALKIDLQTAQQLQNQDDNRGNIVRVQGPFGVIRPPLRGQRPQEEEEEEGRHGRHGNGLEETICSARCTDNLDDPSRADVYKPQLGYISTLNSYDLPILRFIRLSALRGSIRQNAMVLPQWNANANAILYVTDGEAQIQIVNDNGNRVFDGQVSQGQLIAVPQGFSVVKRATSNRFQWVEFKTNANAQINTLAGRTSVLRGLPLEVITNGFQISPEEARRVKFNTLETTLTHSSGPASYGRPRVAAA
For B1, in test [1], the binding result is given as “no binding”.

B2: Arabidopsis ADT, AtADT5 (enzyme, UniProt Q9FNJ8 39-425)
chain: CSYRSESFSFPNGVGSSRADWQSSCAILASKVVSAENSSSVAVVNGHSNGSVDLSLVPSKSQHNGKPGLIQPLTITDLSPAPSHGSTLRVAYQGVPGAYSEAAAGKAYPNSEAIPCDQFDVAFQAVELWIADRAVLPVENSLGGSIHRNYDLLLRHRLHIVGEVQIPVHHCLLALPGVRTDCITRVISHPQALAQTEGSLNKLTPKAAIEAFHDTAAAAEYIAANNLHDTAAVASARAAELYGLQILADGIQDDAGNVTRFLMLARDPIIPRTDRPFKTSIVFAAQEHKGTSVLFKVLSAFAFRNISLTKIESRPHQNCPVRVVGDENVGTSKHFEYTFYVDFEASMAEARAQNALAEVQEYTSFLRVLGSYPMDMTPWSTLPSEDV
For B2, the binding result in test [2] and in test [1] was “binds” each time.
